From PMC8466908
No constants are given. Whether binding was seen depends on the method and setting. Some entries that bind do so weakly or less than the wild type.

By UniProt entry, the sequences of proteins in these tests, tags left out. Residues count along the entry.
UniProt P31040, residues 43-664: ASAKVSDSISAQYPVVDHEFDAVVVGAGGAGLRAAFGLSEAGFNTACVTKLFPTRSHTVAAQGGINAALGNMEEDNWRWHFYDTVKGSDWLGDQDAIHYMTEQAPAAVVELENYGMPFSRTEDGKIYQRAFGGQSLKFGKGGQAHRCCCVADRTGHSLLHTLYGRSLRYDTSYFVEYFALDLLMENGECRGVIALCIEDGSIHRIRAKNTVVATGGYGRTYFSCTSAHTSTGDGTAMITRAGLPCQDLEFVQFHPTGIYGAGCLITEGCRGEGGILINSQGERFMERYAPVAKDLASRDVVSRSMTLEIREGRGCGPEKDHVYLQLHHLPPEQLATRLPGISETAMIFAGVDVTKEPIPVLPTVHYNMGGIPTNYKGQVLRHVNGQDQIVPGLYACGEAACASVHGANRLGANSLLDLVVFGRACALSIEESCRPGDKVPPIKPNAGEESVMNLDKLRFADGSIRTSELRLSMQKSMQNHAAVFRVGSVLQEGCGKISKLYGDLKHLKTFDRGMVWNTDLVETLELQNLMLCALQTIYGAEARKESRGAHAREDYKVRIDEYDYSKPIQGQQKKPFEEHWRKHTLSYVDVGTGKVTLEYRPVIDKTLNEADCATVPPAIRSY

T1: Succinate dehydrogenase subunit C (human (endogenous in HEK293)) (UniProt Q99643)
T1 sequence: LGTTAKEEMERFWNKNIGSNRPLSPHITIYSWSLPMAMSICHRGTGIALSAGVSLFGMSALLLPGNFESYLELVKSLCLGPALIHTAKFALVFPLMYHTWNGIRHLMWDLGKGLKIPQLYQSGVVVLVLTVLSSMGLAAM


Legend:
[1] = target: Succinate dehydrogenase subunit A (human (endogenous in HEK293 and HepG2)) (UniProt P31040); experiment: native gel or EMSA; two-dimensional BN-PAGE/SDS-PAGE and immunoblot of mitochondrial lysates of parental and CAMKK2-/- HEK293 cells; lysis buffer pH 7 with 1.5% n-dodecyl beta-D-maltoside, 4-15% gradient native gel run at 4 °C; co-migration (vertical alignment) read as association
[2] = target: T1, Succinate dehydrogenase subunit C (human (endogenous in HEK293)); experiment: as above
[3] = target: Succinate dehydrogenase subunit A (human (endogenous in HEK293 and HepG2)) (UniProt P31040); experiment: native gel or EMSA; two-dimensional BN-PAGE/SDS-PAGE and immunoblot of mitochondrial lysates of parental and CAMKK2-/- HepG2 cells; lysis buffer pH 7 with 1.5% n-dodecyl beta-D-maltoside, 4-15% gradient native gel run at 4 °C; co-migration (vertical alignment) read as association

binding [1]	binding [2]	binding [3]	Binder
binds			Succinate dehydrogenase subunit C (protein, UniProt Q99643 30-169) LGTTAKEEMERFWNKNIGSNRPLSPHITIYSWSLPMAMSICHRGTGIALSAGVSLFGMSALLLPGNFESYLELVKSLCLGPALIHTAKFALVFPLMYHTWNGIRHLMWDLGKGLKIPQLYQSGVVVLVLTVLSSMGLAAM
binds	binds	binds	Succinate Dehydrogenase Complex Iron-Sulfur Subunit B (protein, UniProt P21912 29-280) AQTAAATAPRIKKFAIYRWDPDKAGDKPHMQTYEVDLNKCGPMVLDALIKIKNEVDSTLTFRRSCREGICGSCAMNINGGNTLACTRRIDTNLNKVSKIYPLPHMYVIKDLVPDLSNFYAQYKSIEPYLKKKDESQEGKQQYLQSIEEREKLDGLYECILCACCSTSCPSYWWNGDKYLGPAVLMQAYRWMIDSRDDFTEERLAKLQDPFSLYRCHTIMNCTRTCPKGLNPGKAIAEIKKMMATYKEKKASV
